Assay results: US9833405B2, “Biodegradable microdepot delivery system for topical delivery” (Nano and Advanced Materials Institute Limited, priority 2014, dated 2017)

System: HaCaT cells
Assay: Cell viability assay (MTT) for in vitro skin irritation of active ingredients
Format: cell-based, human
Procedure: HaCaT cells, a human keratinocyte cell line, are used as the in vitro model to test any irritation effect of the active ingredients used in the polymeric solution to form the microdepot delivery system of the present invention. The following is the procedures of an MTT assay for testing any skin irritation effect of the active ingredients used in the polymeric solution of the present invention: • a) 12 mM MTT stock solution is prepared by adding 1 mL of sterile PBS into one 5 mg vial of MTT (Component A) and mixed by sonication until the vial of MTT is dissolved in the PBS; • b) HaCaT cells at 5,000 cells per well are seed into a 96-well plate and incubated at 37° C. in 5% CO2 for 24 to 48 hours until the cells become adherent; • c) Culture medium in each well is removed and replaced with 100 μL of test compound (e.g., active ingredient used in the polymeric solution of the present invention); • d) 10 μL of the MTT stock solution prepared in step (a) is added to each well; a negative control containing 100 μL of culture medium and 10 μL of the MTT stock solution is also included for comparison; • e) Both test samples and negative control prepared in step (d) are incubated at 37° C. for 4 hours; • f) 25 μL of the solution is removed from each well after incubation in step (e) followed by adding 50 μL of DMSO to each well and mix thoroughly by pipette; • g) The mixture in step (f) is incubated at 37° C. for 10 minutes; • h) The mixture in each well after the incubation in step (g) is mixed again before measuring absorbance at 540 nm; • i) The mixture is subject to a spectrophotometer to measure the absorbance at 540 nm.
The cell viability of HaCaT cells with the treatment of the test compound is calculated based on the following formula:
[formula] where ^OD(1) is the absorbance of culture medium only; ^OD(2) is the absorbance of the culture medium with the cells; ^OD(3) is the absorbance of the culture medium with the test compound; and ^OD(4) is the absorbance of the culture medium with the cells and test compound.

Substance: GHK-Cu
- OD560 (test compound 0.2%): 1.66
- OD560 (test compound 0.5%): 1.718
- OD560 (test compound 1%): 1.775
- OD560 (test compound 2%): 1.629
- OD560 (test compound 5%): 1.671
